# This is one part of the list. Single values are uncertain, as repeats are few or missing.
# System: C6
# Test: cell mass (Coomassie absorbance) after combination of library compound with HMBA, relative to vehicle control (fraction); higher = more remaining cells (less growth inhibition)
row,Compound,cell mass
1,CC1=C(CC(=O)O)c2cc(F)ccc2/C1=C\c1ccc([S+](C)[O-])cc1 (centres undefined) [Sulindac] + CC(=O)NCCCCCCNC(C)=O [hexamethylene bisacetamide],0.505
2,Nc1ccccc1NC(=O)c1ccc(CNc2nccc(-c3cccnc3)n2)cc1 [MGCD0103(Mocetinostat)] + CC(=O)NCCCCCCNC(C)=O [hexamethylene bisacetamide],0.343
3,Cc1ccc(S(=O)(=O)OCC(=O)Nc2ccc(C(=O)O)c(O)c2)cc1 + CC(=O)NCCCCCCNC(C)=O [hexamethylene bisacetamide],0.448
4,CN(C)c1ccc(-c2nc3ncc(Cl)c(N4CCN(CC(=O)Nc5nccs5)CC4)c3[nH]2)cc1 + CC(=O)NCCCCCCNC(C)=O [hexamethylene bisacetamide],0.552
5,CC(C)C[C@H](NC(=O)[C@@H](O)[C@H](N)Cc1ccccc1)C(=O)O [Ubenimex] + CC(=O)NCCCCCCNC(C)=O [hexamethylene bisacetamide],0.578
6,Cc1ccc(C(=O)Nc2cccc(C(F)(F)F)c2)cc1Nc1nc(-c2cccnc2)nc2c1cnn2C + CC(=O)NCCCCCCNC(C)=O [hexamethylene bisacetamide],0.723
7,CC(C)[C@H](C(=O)Nc1ccc(C(=O)NO)cc1)c1ccccc1 + CC(=O)NCCCCCCNC(C)=O [hexamethylene bisacetamide],0.296
8,CN1CC[C@H](c2c(O)cc(O)c3c(=O)cc(-c4ccccc4Cl)oc23)[C@H](O)C1 [Flavopiridol] + CC(=O)NCCCCCCNC(C)=O [hexamethylene bisacetamide],0.263
9,N#CCNC(=O)c1ccc(-c2ccnc(Nc3ccc(N4CCOCC4)cc3)n2)cc1 + CC(=O)NCCCCCCNC(C)=O [hexamethylene bisacetamide],0.58
10,CC(C)(C(=O)NCC(F)(F)C(F)(F)F)C(=O)N[C@@H]1C(=O)Nc2ccccc2-c2ccccc21 + CC(=O)NCCCCCCNC(C)=O [hexamethylene bisacetamide],0.918
11,Cn1c(N2CCCCS2(=O)=O)nc(C(=O)NCc2ccc(F)cc2)c(O)c1=O + CC(=O)NCCCCCCNC(C)=O [hexamethylene bisacetamide],0.55
12,Cc1cccc(-c2nn3c(c2-c2ccnc4ccc(C(N)=O)cc24)CCC3)n1 + CC(=O)NCCCCCCNC(C)=O [hexamethylene bisacetamide],0.808
13,COCC(=O)NC/C=C/c1ccc2ncnc(Nc3ccc(Oc4ccc(C)nc4)c(C)c3)c2c1 + CC(=O)NCCCCCCNC(C)=O [hexamethylene bisacetamide],0.545
14,Cc1ncc(-c2ccnc(Nc3ccc(S(C)(=O)=O)cc3)n2)n1C(C)C + CC(=O)NCCCCCCNC(C)=O [hexamethylene bisacetamide],0.652
15,CCOc1cc2ncc(C#N)c(Nc3ccc(F)c(Cl)c3)c2cc1NC(=O)/C=C/CN(C)C [Pelitinib] + CC(=O)NCCCCCCNC(C)=O [hexamethylene bisacetamide],0.474
16,CCC(=O)NCC[C@@H]1CCc2ccc3c(c21)CCO3 [Ramelteon(TAK-375)] + CC(=O)NCCCCCCNC(C)=O [hexamethylene bisacetamide],0.377
17,Cn1cncc1[C@@](N)(c1ccc(Cl)cc1)c1ccc2c(c1)c(-c1cccc(Cl)c1)cc(=O)n2C [Tipifarnib] + CC(=O)NCCCCCCNC(C)=O [hexamethylene bisacetamide],0.546
18,O=C(c1ccc(/C=C/c2n[nH]c3ccccc23)cc1)N1CCNCC1 + CC(=O)NCCCCCCNC(C)=O [hexamethylene bisacetamide],0.705
19,NC(=O)c1cccc2[nH]c(-c3ccc(C4CCCN4)cc3F)nc12 (centres undefined) + CC(=O)NCCCCCCNC(C)=O [hexamethylene bisacetamide],0.607

# Some values from the results shown.
# Under cell mass, COCC(=O)NC/C=C/c1ccc2ncnc(Nc3ccc(Oc4ccc(C)nc4)c(C)c3)c2c1 + CC(=O)NCCCCCCNC(C)=O [hexamethylene bisacetamide] shows 0.545
# Under cell mass, Cc1ccc(C(=O)Nc2cccc(C(F)(F)F)c2)cc1Nc1nc(-c2cccnc2)nc2c1cnn2C + CC(=O)NCCCCCCNC(C)=O [hexamethylene bisacetamide] shows 0.723
